Data taken from article PMC11829042, “Proteasomes accumulate in the plant apoplast where they participate in microbe-associated molecular pattern (MAMP)-triggered pathogen defense” (Nature Communications, 2025).
These are yes or no findings as the source states them, for the method shown. Binding seen in cells or lysates may run through a third protein. Some results given as binding are weak or reduced against the parent protein; the word gives no strength. Tags and fused reporters may be left off the sequences shown.

Molecular target: T1, PAG1(α7) CP subunit bearing a C-terminal FLAG tag (Arabidopsis thaliana) (UniProt O23715)
T1 sequence: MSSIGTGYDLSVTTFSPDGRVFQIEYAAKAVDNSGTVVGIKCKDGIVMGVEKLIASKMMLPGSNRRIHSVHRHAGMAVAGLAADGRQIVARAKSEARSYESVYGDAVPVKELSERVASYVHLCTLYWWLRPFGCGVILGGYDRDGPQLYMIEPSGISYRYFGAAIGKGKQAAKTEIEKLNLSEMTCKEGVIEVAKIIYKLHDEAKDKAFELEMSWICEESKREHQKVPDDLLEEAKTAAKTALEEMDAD
Assay: co-IP; immune-depletion: resuspended APFp from PAG1-FLAG pag1-1 leaves applied three times to anti-FLAG M2 resin at 4 °C in buffer A (50 mM HEPES pH 7.5, 50 mM NaCl, 10% glycerol, 10 mM MgCl2, 20 mM ATP, 2 mM PMSF, 0.6% Na2S2O5); APFp, supernatant and immunoprecipitated fractions immunoblotted

B1: PBA1(β1) CP subunit (protein, UniProt Q8LD27 13-233)
chain: TTIIGVTYNGGVVLGADSRTSTGMYVANRASDKITQLTDNVYVCRSGSAADSQVVSDYVRYFLHQHTIQHGQPATVKVSANLIRMLAYNNKNMLQTGLIVGGWDKYEGGKIYGIPLGGTVVEQPFAIGGSGSSYLYGFFDQAWKDNMTKEEAEQLVVKAVSLAIARDGASGGVVRTVIINSEGVTRNFYPGDKLQLWHEELEPQNSLLDILNAAGPEPMAM
With B1 the binding was “binds”.
